Laboratory results from the supplement of paper PMC5949888.
Most values lie at the floor of the assay. Slopes are relative: functional sequences can read slightly below zero.

The substances below were run on Saccharomyces cerevisiae PS128 hsf1 delta, HSF1(1-493) fusion (assay: growth estimate (transactivation domain function in HSF1 fusion, heat-shock survival) (a.u. (slope of normalised read count over time)); higher = stronger growth at 37°C, i.e. more transactivation activity). Settings: library: random library.

Substance | growth estimate
STQSCDYVLGHSAVWNSFDY | 2.42
VPPAVSRLTRASVRWFSTQI | < -0.25
SIDKACSAIQPTLVAGGLSL | < -0.25
RFLGNQSDS | < -0.25
FGNWVPKAATGG | < -0.25
YQDQPSNCWVDLQPGGQEIT | < -0.25
LVAQLNTCFMSPSCLV | < -0.25
IKSRCLRKRDSRSRYRLRMS | < -0.25
HLLKLNL | < -0.25
VSPG | < -0.25
CVWFGAPELGASHRQHRSQT | < -0.25
CCISWPEARNTSAVQSARYT | < -0.25
TLVSALSMGSWGFHTGLGHS | < -0.25
YRVEKETTGCSGSRGARVLW | < -0.25
VRGSKLKVILLPLV | < -0.25
RAGTPMEAG | < -0.25
AQYAPTIAIWF | < -0.25
CGQTLGVGTR | < -0.25
ATRCQLGRYVVPSAYKEGGV | -0.246
LRFWQRFDIGPLFPVDAE | < -0.25
LWIFHACR | < -0.25
GMVPDEPSSGVPRSEILVLD | < -0.25
HLLGSNTV | < -0.25
QDSALAHVAGGLISVVVGYC | < -0.25
QTMFRGHSLKRSEAFLAGSP | < -0.25
KSVIALHCPGDEREVRISSL | < -0.25
STNDRCTGATLPR | < -0.25

Retrieved one by one from the list above:
Substance | growth estimate
VPPAVSRLTRASVRWFSTQI | < -0.25
TLVSALSMGSWGFHTGLGHS | < -0.25
RAGTPMEAG | < -0.25
FGNWVPKAATGG | < -0.25
AQYAPTIAIWF | < -0.25

(cont.)

Substance | growth estimate
EKSIYLDGMSVTNTQLDLER | < -0.25
TGAVVGIRSWLNGPPEGVGC | < -0.25
GRVVNKVSPGAIGVPVAYPA | < -0.25
NEGRGAT | < -0.25
WYTRLFILR | < -0.25
RGMTYG | < -0.25
GSQRGSTRPGQLI | < -0.25
TTKCV | < -0.25
PSQIACGKQPIQVA | < -0.25
QMIMGEEPGPAMDPARSYRR | < -0.25
WDTRHHGEHRPHNWRMNLWG | < -0.25
DVARVAYWWDTWQT | -0.194
MAGASRVLMAVWGEKSLEPT | < -0.25
PQPDLALWSRWQFGNGLGET | < -0.25
QVLLKVYSSSMY | -0.185
CKFRGHLEHCLAPVYITQA | < -0.25
SECHVT | < -0.25
SCPGLPE | < -0.25
TFIHDQLRHRLRYVK | < -0.25
TADGGITRQLSPPCNGSLAL | < -0.25
SGSAGLESLH | < -0.25
SHICILEPGHLSTCFPWRIA | < -0.25
RVCGLGNFNRGAHSAY | < -0.25
YPGEHVGPVPKEVKTPWLNW | < -0.25
ALYELKGLQIVHMIRRHVST | < -0.25
VTVPHKRVQESV | < -0.25
RACSGVIHVIESPLLMRRAL | < -0.25

Substance | growth estimate
GSGTIDIESIRHPAADQQEP | < -0.25
TCLTVLVITGLPPIPRFLRF | < -0.25
LGRTYAEYANHLSVAPLLCN | < -0.25
ITREI | < -0.25
KLIRSLGTICELSTNKTFVV | < -0.25
VGPVHRGATV | < -0.25
SWSSGMTRERPR | < -0.25
RVHARGACNLREKEEE | < -0.25
RRLVLSMGM | < -0.25
ISYCTSGPFQKTRFTGFNEM | < -0.25
IHKRVVEYAPLC | < -0.25
DHRQNVRRVLYGYAVGRRLA | < -0.25
LWKTRR | < -0.25
PRRPVLVVLS | < -0.25
MGRRQLIVIGFTPQGM | < -0.25
EPFYSASPQDLAGMKRAVQR | < -0.25
PVKRCRGVAGAVTGGNHGAQ | < -0.25
TAQGHLCSIAADTNSVSDHR | < -0.25
FAPAN | < -0.25
LLHWLTTQSL | < -0.25
ASGGRPRIEQ | < -0.25
FYHNLRHHWNSIT | < -0.25
ARNGQRSAQWPELILTGYLC | < -0.25
FGNGGLIFDAVHGWVLIPLE | < -0.25
RVRRSFFRLRNRNVLMQ | < -0.25
